Measurements from the supplement of paper PMC3682954.
Several values for one entry are separate records, joined by “and”; a condition that tells them apart may be missing. Equal values may be shown once. Where a name gives a salt, the structure may show the parent alone. ± gives the standard deviation of the averaged measurements. Some of the results follow. Single values are uncertain, as repeats are few or missing.

System: RAW 264.7
Assay: HMGB1-induced TNF-alpha production relative to HMGB1-stimulated control; higher = more TNF-alpha secretion (less inhibition)
Conditions: stimulus: HMGB1 5 ug/ml, 18 h
[1] = compound concentration: 1 ug/ml

| Compound | HMGB1-induced TNF-alpha production (compound concentration: 3 uM) | HMGB1-induced TNF-alpha production [1] [%] |
| --- | --- | --- |
| Fc1ccc(C(c2ccc(F)cc2)N2CCN(C/C=C/c3ccccc3)CC2)cc1 | 91% |  |
| Fc1ccc(C(c2ccc(F)cc2)N2CCN(C/C=C/c3ccccc3)CC2)cc1 [Flunarizine 2HCl] | 92.1% |  |
| Fc1ccc(C(c2ccc(F)cc2)N2CCN(C/C=C/c3ccccc3)CC2)cc1 [Flunarizine dihydrochloride] | 75.4 ± 7.7% |  |
| CN1CCc2c(c3ccccc3n2Cc2ccccc2)C1 | 65.4% |  |
| O=C(O)c1cc(O)c2c(c1)C(=O)c1cccc(O)c1C2=O [Rhein] |  | 71.2 |
| CC(=O)Nc1cc2ccccc2oc1=O [3-Acetamidocoumarin] | 92.6% |  |
| CCCCC(=O)O[C@H]1CC[C@H]2[C@@H]3CCc4cc(O)ccc4[C@H]3CC[C@]12C [Estradiol Valerate] | 80% |  |
| CCCCC(=O)O[C@H]1CC[C@H]2[C@@H]3CCc4cc(O)ccc4[C@H]3CC[C@]12C [estradiol valerate] |  | 69.3 |
| CCCCC(=O)O[C@H]1CC[C@H]2[C@@H]3CCc4cc(O)ccc4[C@H]3CC[C@]12C | 93.5% |  |
| N=C(N)c1ccc(OCCCCCOc2ccc(C(=N)N)cc2)cc1 [Pentamidine] | 99.4% |  |
| N=C(N)c1ccc(OCCCCCOc2ccc(C(=N)N)cc2)cc1 [Pentamidine isethionate] | 98 ± 21% |  |
| N=C(N)c1ccc(OCCCCCOc2ccc(C(=N)N)cc2)cc1 | 75.4% |  |
| O=C(OC[C@H]1O[C@@H](OC(=O)c2cc(O)c(O)c(OC(=O)c3cc(O)c(O)c(O)c3)c2)[C@H](OC(=O)c2cc(O)c(O)c(OC(=O)c3cc(O)c(O)c(O)c3)c2)[C@@H](OC(=O)c2cc(O)c(O)c(OC(=O)c3cc(O)c(O)c(O)c3)c2)[C@@H]1OC(=O)c1cc(O)c(O)c(OC(=O)c2cc(O)c(O)c(O)c2)c1)c1cc(O)c(O)c(OC(=O)c2cc(O)c(O)c(O)c2)c1 | 128 ± 32% |  |
| COc1ccc2c(CN3CCOCC3)cc(=O)oc2c1 |  | 79.2 |
| Cn1c(NCCN(CCO)CCCc2ccc([N+](=O)[O-])cc2)cc(=O)n(C)c1=O [Nifekalant] | 89.9% |  |
| Cn1c(NCCN(CCO)CCCc2ccc([N+](=O)[O-])cc2)cc(=O)n(C)c1=O | 114% |  |
| O=c1cc(-c2ccccc2O)oc2c(O)c(O)ccc12 |  | 51.2 |

Given bar-delimited: entries from further up.
Compound | HMGB1-induced TNF-alpha production (compound concentration: 3 uM) | HMGB1-induced TNF-alpha production [1] [%]
N=C(N)c1ccc(OCCCCCOc2ccc(C(=N)N)cc2)cc1 [Pentamidine] | 99.4% | 
O=c1cc(-c2ccccc2O)oc2c(O)c(O)ccc12 |  | 51.2

The list goes on.

| Compound | HMGB1-induced TNF-alpha production (compound concentration: 3 uM) | HMGB1-induced TNF-alpha production [1] [%] |
| --- | --- | --- |
| C[C@H](N)CO | 98.3% |  |
| OCCOCCN1CCN(C2=Nc3ccccc3Sc3ccccc32)CC1 | 108% and 95.8% |  |
| OCCOCCN1CCN(C2=Nc3ccccc3Sc3ccccc32)CC1 [Quetiapine] | 73% |  |
| OCCOCCN1CCN(C2=Nc3ccccc3Sc3ccccc32)CC1 [Quetiapine Fumarate] | 96.9% |  |
| CCC(=O)O[C@@H](O[P@](=O)(CCCCc1ccccc1)CC(=O)N1C[C@H](C2CCCCC2)C[C@H]1C(=O)O)C(C)C [Fosinopril] | 107 ± 14% |  |
| COc1cccc2c1C(=O)c1c(O)c3c(c(O)c1C2=O)C[C@@](O)(C(=O)CO)C[C@@H]3O[C@H]1C[C@H](N)[C@H](O)[C@H](C)O1 [Doxorubicin hydrochloride] | 31.8% |  |
| COc1cccc2c1C(=O)c1c(O)c3c(c(O)c1C2=O)C[C@@](O)(C(=O)CO)C[C@@H]3O[C@H]1C[C@H](N)[C@H](O)[C@H](C)O1 | 45% and 50.4% |  |
| COc1cccc2c1C(=O)c1c(O)c3c(c(O)c1C2=O)C[C@@](O)(C(=O)CO)C[C@@H]3O[C@H]1C[C@H](N)[C@H](O)[C@H](C)O1 [Doxorubicin HCl] | 36.5% |  |
| Cn1cnc2c(NCc3ccccc3)nc(NCCO)nc21 [Olomoucine] | 110% |  |
| CC1(C)S[C@@H]2[C@H](NC(=O)[C@H](N)c3ccc(O)cc3)C(=O)N2[C@H]1C(=O)O | 87% |  |
| CC1(C)S[C@@H]2[C@H](NC(=O)[C@H](N)c3ccc(O)cc3)C(=O)N2[C@H]1C(=O)O [Amoxicillin] | 66.3% |  |
| COc1cccc2c1[C@@H]1CN(CCCCn3c(=O)[nH]c4c(sc5ncc(-c6ccccc6)nc54)c3=O)C[C@@H]1CO2 [Fiduxosin hydrochloride] | 80.3% |  |
| CN[C@@H]1[C@H](O[C@H]2[C@H](O[C@H]3[C@H](O)[C@@H](O)[C@H](N=C(N)N)[C@@H](O)[C@@H]3N=C(N)N)O[C@@H](C)[C@]2(O)C=O)O[C@@H](CO)[C@H](O)[C@H]1O [Streptomycin sulfate] | 80.4% |  |
| CN[C@@H]1[C@H](O[C@H]2[C@H](O[C@H]3[C@H](O)[C@@H](O)[C@H](N=C(N)N)[C@@H](O)[C@@H]3N=C(N)N)O[C@@H](C)[C@]2(O)C=O)O[C@@H](CO)[C@H](O)[C@H]1O | 83.9% |  |
| CN[C@@H]1[C@H](O[C@H]2[C@H](O[C@H]3[C@H](O)[C@@H](O)[C@H](N=C(N)N)[C@@H](O)[C@@H]3N=C(N)N)O[C@@H](C)[C@]2(O)C=O)O[C@@H](CO)[C@H](O)[C@H]1O [Streptomycin] | 109% |  |
| Cc1cccc(C(=O)O)c1O | 77.5% |  |
| Nc1nc(Cl)nc2c1ncn2[C@H]1C[C@H](O)[C@@H](CO)O1 | 110% |  |
